Test [1] has as its target T1, Sgo1-SZZ(TAP) (S. cerevisiae) (UniProt Q08490).
T1 sequence: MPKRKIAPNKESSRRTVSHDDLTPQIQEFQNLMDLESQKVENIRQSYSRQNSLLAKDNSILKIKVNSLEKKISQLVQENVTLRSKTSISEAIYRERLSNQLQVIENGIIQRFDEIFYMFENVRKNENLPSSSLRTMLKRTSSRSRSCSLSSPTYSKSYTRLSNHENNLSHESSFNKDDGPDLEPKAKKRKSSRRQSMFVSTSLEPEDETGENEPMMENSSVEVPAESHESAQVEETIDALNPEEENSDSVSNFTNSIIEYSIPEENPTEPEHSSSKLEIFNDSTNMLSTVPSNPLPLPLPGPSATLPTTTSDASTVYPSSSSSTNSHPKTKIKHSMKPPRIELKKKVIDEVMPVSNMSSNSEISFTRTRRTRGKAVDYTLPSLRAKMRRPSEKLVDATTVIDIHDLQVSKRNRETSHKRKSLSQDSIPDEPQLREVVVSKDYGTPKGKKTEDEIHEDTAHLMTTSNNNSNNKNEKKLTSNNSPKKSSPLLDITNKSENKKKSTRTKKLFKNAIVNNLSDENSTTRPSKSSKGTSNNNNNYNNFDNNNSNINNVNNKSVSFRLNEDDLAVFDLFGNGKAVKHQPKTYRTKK
The experiment in a line: co-IP; cells arrested in nocodazole for 2 hr and treated with the cross-linker DSP before extract preparation; extracts incubated with IgG-coupled dynabeads for 1.5 hr at 4°C to precipitate SZZ(TAP)-tagged Sgo1; immunoblot.

Chains of the proteins cited; added tags and fusions are not shown.
UniProt P38903: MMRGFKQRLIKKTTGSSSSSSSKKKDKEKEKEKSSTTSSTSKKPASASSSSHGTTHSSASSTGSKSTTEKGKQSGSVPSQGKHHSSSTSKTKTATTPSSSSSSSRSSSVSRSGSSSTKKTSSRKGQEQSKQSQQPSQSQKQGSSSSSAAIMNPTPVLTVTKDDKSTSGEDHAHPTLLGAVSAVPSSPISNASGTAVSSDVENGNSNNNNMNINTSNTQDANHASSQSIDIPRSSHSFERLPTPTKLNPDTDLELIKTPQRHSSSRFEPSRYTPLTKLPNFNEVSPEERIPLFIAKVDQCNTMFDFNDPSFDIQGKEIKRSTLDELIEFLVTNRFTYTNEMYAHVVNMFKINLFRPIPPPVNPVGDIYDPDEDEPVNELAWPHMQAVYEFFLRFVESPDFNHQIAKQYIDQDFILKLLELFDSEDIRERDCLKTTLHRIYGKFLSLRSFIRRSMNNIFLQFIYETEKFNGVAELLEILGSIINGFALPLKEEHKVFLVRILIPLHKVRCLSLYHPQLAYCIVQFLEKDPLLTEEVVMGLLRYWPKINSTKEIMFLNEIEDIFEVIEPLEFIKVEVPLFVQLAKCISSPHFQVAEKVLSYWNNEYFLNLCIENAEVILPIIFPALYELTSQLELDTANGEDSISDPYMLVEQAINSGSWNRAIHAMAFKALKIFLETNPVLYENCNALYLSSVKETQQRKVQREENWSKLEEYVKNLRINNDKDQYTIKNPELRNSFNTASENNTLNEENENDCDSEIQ

Test [2] has as its target T1, Sgo1-SZZ(TAP) (S. cerevisiae). The description is as above. The source holds these as a separate data set.
Test [3] shares this target. The experiment in a line: co-IP; nocodazole-arrested cells directly drop-frozen without DSP or treated with DSP; extracts with or without 25 U benzonase for 30 min; IgG-coupled beads; immunoblot.

These are yes or no findings as the source states them, for the method shown. Binding seen in cells or lysates may run through a third protein. Some entries that bind do so weakly or less than the wild type.

With Rts1-9Myc (from UniProt P38903 1-757), in test [1], the binding result is listed as “binds”.

B1: Ipl1-6HA (enzyme, UniProt P38991 1-367)
chain: MQRNSLVNIKLNANSPSKKTTTRPNTSRINKPWRISHSPQQRNPNSKIPSPVREKLNRLPVNNKKFLDMESSKIPSPIRKATSSKMIHENKKLPKFKSLSLDDFELGKKLGKGKFGKVYCVRHRSTGYICALKVMEKEEIIKYNLQKQFRREVEIQTSLNHPNLTKSYGYFHDEKRVYLLMEYLVNGEMYKLLRLHGPFNDILASDYIYQIANALDYMHKKNIIHRDIKPENILIGFNNVIKLTDFGWSIINPPENRRKTVCGTIDYLSPEMVESREYDHTIDAWALGVLAFELLTGAPPFEEEMKDTTYKRIAALDIKMPSNISQDAQDLILKLLKYDPKDRMRLGDVKMHPWILRNKPFWENKRL
Turning to B1, the binding entry in test [2] is “binds”.

B2: Brn1-6HA (protein, UniProt P38170 1-754)
chain: MTTQLRYENNDDDERVEYNLFTNRSTMMANFEEWIKMATDNKINSRNSWNFALIDYFYDLDVLKDGENNINFQKASATLDGCIKIYSSRVDSVTTETGKLLSGLAQRKTNGASNGDDSNGGNGEGLGGDSDEANIEIDPLTGMPISNDPDVNNTRRRVYNRVLETTLVEFETIKMKELDQELIIDPLFKKALVDFDEGGAKSLLLNTLNIDNTARVIFDASIKDTQNVGQGKLQRKEEELIERDSLVDDENEPSQSLISTRNDSTVNDSVISAPSMEDEILSLGMDFIKFDQIAVCEISGSIEQLRNVVEDINQAKDFIENVNNRFDNFLTEEELQAAVPDNAEDDSDGFDMGMQQELCYPDENHDNTSHDEQDDDNVNSTTGSIFEKDLMAYFDENLNRNWRGREHWKVRNFKKANLVNKESDLLEETRTTIGDTTDKNTTDDKSMDTKKKHKQKKVLEIDFFKTDDSFEDKVFASKGRTKIDMPIKNRKNDTHYLLPDDFHFSTDRITRLFIKPGQKMSLFSHRKHTRGDVSSGLFEKSTVSANHSNNDIPTIADEHFWADNYERKEQEEKEKEQSKEVGDVVGGALDNPFEDDMDGVDFNQAFEGTDDNEEASVKLDLQDDEDHKFPIRENKVTYSRVSKKVDVRRLKKNVWRSINNLIQEHDSRKNREQSSNDSETHTEDESTKELKFSDIIQGISKMYSDDTLKDISTSFCFICLLHLANEHGLQITHTENYNDLIVNYEDLATTQAAS
In the case of B2, the binding entry in test [2] is on record as “binds”.

B3: Ycs4-6HA (protein, UniProt Q06156 1-1176)
chain: MSGFSLSEYLTKFQTTDRESYPRLQDPSRELNVIIDQLAVSPEQIDASPDSLEALIDLCHDFPHLTPKLQTQLSYLISSSLSNLSKDIKANLSSNVNFTEIGGLIPQWKRHLEEYGYLIQVLLTFLQDELHKVSSQSTNLNRSAKNSKNDSANVELFKRDCNQMENLLESITKLLEINLSKIFQTTPEKDLFIGLFTRPLFVLLEIEPVTKVSSLKMFIQRILAMCVKNHGQSSSIQSSLMTNLTYFLHLSVFNAELLKLLNDEYNYPQLTEDILKEISTRVFNAKDTTGPKAISNFLIKLSELSPGIMLRQMNLVITLLNNSSITLRCSVVEACGNIVAELAQDPQTMEHYKQQIAVLIELLEERFQDSNPYVRTKAIQGCSKICDLSSKFNKSKAKFTSLAVRSLQDRSSLVRRNSVKLLSKLLLKHPFKAIHGSQLRLSEWEEYLKGSESQLNSTLKKVESQETLNDTIERSLIEEEVEQDEGQCRTELEGSFNKSAELSRIENEVENINATNTSVLMKLKLMIVYYKDAISFIKEIHKSIELISNLLFSKNRNEVLESMDFLVLADAFDIELSEFGIKKMLHLVWMKGTNDEGTSISVHLIECYKQLFLTAPDSCNMQEKAAHIAKNLINLSIGASIADLASLEQLLGMMYEQKLIDQHVINILWAIYNSASKASMQKEQNVNNRDSEKGFSKEQIHGSIIILGMLSLADNEIALKGLESLLNIGLGAVGLKDLTLCRYSCLALERMVPKRSTIITKAINQELEDVAVKKLYAIIINYTKDNEYYPMCEQALSALFTISSKPDILATDLIREKTMMTFGKPEEEDSILSLEQSSRVVSLSQLLFIVGQVAIKTLVYLEKCEAEFKKRKIEAETRNGKVKNQGADVTNTTQDNGGDKELEMIGGTNEDDFTDAIQFVKENELLFGEKSILGKFCPIVEEIVSNSSRFSDPMLQRTATLCLEKLMCLSSKYCEKSLPLLITVMEKSPDPTIRSNAVLGLGDMAVCFNNLVDENTDYLYRRLHDENLMVQRTCLMTVTFLILAGQVKVKGQLGEMAKCLDNPDQGISDMCRLFFTELASKDNAIYNGFIDIFSNLSSDDLLGKESFKKIIKFLLTFIDKERHQKQLNEKLVGRLRKCETQKQWDDIAFVLNNLPYKNEDVTALLEQGFKVVSAKE
For the molecule B3, the binding entry in test [3] and in test [2] was “binds” each time.

Values taken from publication PMC3910079.
